# According to PubChem BioAssay AID504648 (National Center for Advancing Translational Sciences (NCATS), 2011):
# Among all 390,000 compounds or so, about 610 (0.16%) were called active. Inconclusive means that the source gave no clear call. Such entries were picked first, then a sample of the others. The call rests on the fitted dose curve; in most records, active means well fitted inhibition curve with a large enough effect; inconclusive means small, poorly fitted or top-dose-only effect, or effect the other way, or another doubt; inactive means no such curve, though single readings can be large or run the other way. Potencies of inconclusive entries are doubtful fits and often do not repeat.
# Experiment: Nrf2 qHTS screen for inhibitors: counterscreen for cytotoxicity
# Conditions: A549 ARE-Fluc cells, CellTiter-Fluor viability, 18-24 h; series mostly up to 46 µM
# Method in brief: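 A549 ARE_Fluc cells in 5% FBS OPTI-MEM were exposed to compounds in concentration-response for 18-24 h at 37 deg C. Viability was read by CellTiter-Fluor fluorescence (Ex 405/Em 525) after 30 min, before the luciferase read.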
# Potency means the concentration at half of the fitted maximal effect.
row,Structure (SMILES),Potency
1,C=CCn1c(=O)c(C(=O)OCC)c(O)c2ccccc21,"inconclusive: 29.1 µM [activator, single point]"
2,COC(=O)c1ccc2nc(NC(=O)C(C)(C)C)sc2c1,inactive
3,COc1cccc(-c2nc(NC3CCCC3)c3ccccc3n2)c1O,"inconclusive: 18.4 µM [falling, single point]"
4,O=C(Nc1ccc(S(=O)(=O)NC2CCCC2)cc1)c1cnccn1,"inconclusive: 0.291 µM [falling, partial curve, poor fit]"
5,CCOCCCNC(=O)c1cc(Sc2ccc(C)cc2)nc2ccccc12,inactive
6,COC(=O)Nc1ccc(S(=O)(=O)N2CCC(C(=O)N3CCCCC3C)CC2)cc1 (stereo unspecified),"inconclusive: 16.4 µM [falling, partial curve, poor fit]"
7,Cc1ccc(S(=O)(=O)N(C)C)cc1NC(=O)CSc1nc2ccccc2c(=O)n1CC1CCCO1 (stereo unspecified),"inconclusive: 25.9 µM [falling, partial curve, poor fit]"
8,CCCn1nc(NS(=O)(=O)c2cccc3nonc23)c2cc3cc(C)ccc3nc21,"inconclusive: 23.1 µM [falling, partial curve, poor fit]"
9,CCS(=O)(=O)NCC(c1cccnc1)N1CCN(c2ccccc2)CC1 (stereo unspecified),"inconclusive: 29.1 µM [falling, single point]"
10,O=C(/C=C/c1ccco1)NCC(=O)N/N=C/c1ccccc1[N+](=O)[O-],"inconclusive: 2.06 µM [activator, partial curve, poor fit]"
11,COc1ccc2cc1Oc1ccc(cc1)C[C@H]1c3cc(c(OC)cc3CCN1C)Oc1c(OC)c(OC)cc3c1[C@H](C2)N(C)CC3,active: 6.51 µM
12,Cc1ccc2cccc(NC(=O)c3ccc(OC(C)C)cc3)c2n1,"inconclusive: 29.1 µM [activator, partial curve, poor fit]"
13,CCCOc1ccc(N2C(=O)CC(S/C(N)=N/N=C(\C)c3cccs3)C2=O)cc1 (stereo unspecified),"inconclusive: 29.1 µM [falling, single point]"
14,O=S(=O)(c1ccc(Cl)cc1)N1CCC(O)(c2cccnc2)CC1,"inconclusive: 32.6 µM [activator, partial curve, poor fit]"
15,C/C(=N\NC(=O)c1cc(-c2ccccn2)nc2ccccc12)c1cccc([N+](=O)[O-])c1,inactive
16,Cc1cc(=O)oc2cc(OCC3CC(c4ccccc4Cl)=NO3)ccc12 (stereo unspecified),"inconclusive: 4.61 µM [falling, partial curve, poor fit]"
17,CCn1c2ccccc2c(=O)c2ccccc21,"inconclusive: 11.6 µM [activator, partial curve]"
18,Cc1ccc(CN(c2ccc(C(=O)N3CCc4ccccc4C3)cc2)S(C)(=O)=O)cc1,inactive
19,COc1ccc(Cn2c(C(=O)O)c(CNC3CCCC3)c3ccc(OC)cc32)cc1,"inconclusive: 5.8 µM [falling, partial curve, poor fit]"
20,CCOC(=O)C1=C(C)NC(=O)C(C#N)C1c1ccncc1 (stereo unspecified),"inconclusive: 20.6 µM [activator, partial curve, poor fit]"
21,C/C(=N\NC(=O)c1nnn(-c2nonc2N)c1C(C)C)c1cc(C)sc1C,inactive

# 3 entries drawn at random from the list so far, as already listed:
row,Structure (SMILES),Potency
3,COc1cccc(-c2nc(NC3CCCC3)c3ccccc3n2)c1O,"inconclusive: 18.4 µM [falling, single point]"
1,C=CCn1c(=O)c(C(=O)OCC)c(O)c2ccccc21,"inconclusive: 29.1 µM [activator, single point]"
17,CCn1c2ccccc2c(=O)c2ccccc21,"inconclusive: 11.6 µM [activator, partial curve]"

# Further structures

row,Structure (SMILES),Potency
1,COc1ccccc1-n1cc([C@@H]2C[C@H]3CN(c4ccccc4)C(=O)[C@]34CCCN24)cn1,"inconclusive: 25.9 µM [falling, partial curve, poor fit]"
2,Cc1ccc(CN2CC(C(=O)Nc3cc(C)ccn3)CC2=O)cc1 (stereo unspecified),"inconclusive: 25.9 µM [falling, partial curve, poor fit]"
3,CSc1nc(Nc2ccc(F)cc2)cc(-c2ccccc2)n1,"inconclusive: 29.1 µM [falling, partial curve, poor fit]"
4,CCOc1ccc(-c2nn(-c3ccccc3)cc2C2NC(=O)NC(C)=C2C(=O)OC(C)C)cc1 (stereo unspecified),"inconclusive: 25.9 µM [falling, partial curve, poor fit]"
5,CCc1nnc(NC(=O)CSc2nc(C)cc(C)c2C#N)s1,"inconclusive: 23.1 µM [activator, partial curve, poor fit]"
6,Cc1ccc2nc3nc(NCC4CCCO4)c(C(=O)NC4CCCC4)cc3c(=O)n2c1 (stereo unspecified),"inconclusive: 5.17 µM [activator, single point]"
7,CCCNC(=O)c1cc(C)no1,inactive
8,Cc1c(C)n(CCN(C)C)c2ccc(C(=O)OCCN(C)C)cc12,"inconclusive: 29.1 µM [falling, single point]"
9,COc1cc(NC(=O)Cn2c(=O)cc(C)c3c(C)nn(-c4ccc(C)cc4)c32)cc(OC)c1,inactive
10,c1ccc2sc(-c3ccncc3)nc2c1,inactive
11,CCC(=O)OCCNc1cc(Sc2nc3ccccc3s2)c2nonc2c1[N+](=O)[O-],"inconclusive: 20.6 µM [falling, single point]"
12,COc1ccc2c(Cl)c(C(=O)N/N=C/c3c(C)[nH]c4ccccc34)sc2c1,"inconclusive: 29.1 µM [falling, single point]"
13,C=CCN1C(=O)C2(OCCCO2)c2cc(C)ccc21,inactive
14,Cc1ccc(-c2nc(SCC(=O)Nc3cc(S(=O)(=O)N4CCCCC4)ccc3Cl)n[nH]2)cc1,"inconclusive: 18.4 µM [falling, partial curve, poor fit]"
15,COc1cccc(CN(C)CC(=O)Nc2ccccc2C(=O)Nc2ccccc2)c1OC,"inconclusive: 32.6 µM [falling, single point]"
16,O=C(CSc1nnc(NC(=O)c2ccc(F)cc2F)s1)NC1CCCC1,inactive
17,COc1nn(-c2nc(-c3ccccc3)cc(C(F)(F)F)n2)cc1[N+](=O)[O-],inactive
18,CC(=O)c1cccc(Oc2cc(NN3CCCCC3)c([N+](=O)[O-])cc2[N+](=O)[O-])c1,"inconclusive: 29.1 µM [falling, single point]"
19,CCn1c(=O)c2cc(C(=O)NCCCN3CCN(C)CC3)sc2c2ccccc21,"inconclusive: 3.66 µM [activator, partial curve, poor fit]"
20,C=CCC[C@@H](Cc1ccc(F)cc1)C(=O)OC[C@@H]1CCCN1C(=O)[C@@H](CC=C)CC(=O)N[C@@H](CO)Cc1ccccc1,"inconclusive: 32.6 µM [falling, partial curve, poor fit]"
